Assay results: article PMC4118103
These are yes or no findings as the source states them, for the method shown. In cells and extracts the contact can be indirect. Some entries that bind do so weakly or less than the wild type.

Chains of the proteins cited; added tags and fusions are not shown.
UniProt Q5S007: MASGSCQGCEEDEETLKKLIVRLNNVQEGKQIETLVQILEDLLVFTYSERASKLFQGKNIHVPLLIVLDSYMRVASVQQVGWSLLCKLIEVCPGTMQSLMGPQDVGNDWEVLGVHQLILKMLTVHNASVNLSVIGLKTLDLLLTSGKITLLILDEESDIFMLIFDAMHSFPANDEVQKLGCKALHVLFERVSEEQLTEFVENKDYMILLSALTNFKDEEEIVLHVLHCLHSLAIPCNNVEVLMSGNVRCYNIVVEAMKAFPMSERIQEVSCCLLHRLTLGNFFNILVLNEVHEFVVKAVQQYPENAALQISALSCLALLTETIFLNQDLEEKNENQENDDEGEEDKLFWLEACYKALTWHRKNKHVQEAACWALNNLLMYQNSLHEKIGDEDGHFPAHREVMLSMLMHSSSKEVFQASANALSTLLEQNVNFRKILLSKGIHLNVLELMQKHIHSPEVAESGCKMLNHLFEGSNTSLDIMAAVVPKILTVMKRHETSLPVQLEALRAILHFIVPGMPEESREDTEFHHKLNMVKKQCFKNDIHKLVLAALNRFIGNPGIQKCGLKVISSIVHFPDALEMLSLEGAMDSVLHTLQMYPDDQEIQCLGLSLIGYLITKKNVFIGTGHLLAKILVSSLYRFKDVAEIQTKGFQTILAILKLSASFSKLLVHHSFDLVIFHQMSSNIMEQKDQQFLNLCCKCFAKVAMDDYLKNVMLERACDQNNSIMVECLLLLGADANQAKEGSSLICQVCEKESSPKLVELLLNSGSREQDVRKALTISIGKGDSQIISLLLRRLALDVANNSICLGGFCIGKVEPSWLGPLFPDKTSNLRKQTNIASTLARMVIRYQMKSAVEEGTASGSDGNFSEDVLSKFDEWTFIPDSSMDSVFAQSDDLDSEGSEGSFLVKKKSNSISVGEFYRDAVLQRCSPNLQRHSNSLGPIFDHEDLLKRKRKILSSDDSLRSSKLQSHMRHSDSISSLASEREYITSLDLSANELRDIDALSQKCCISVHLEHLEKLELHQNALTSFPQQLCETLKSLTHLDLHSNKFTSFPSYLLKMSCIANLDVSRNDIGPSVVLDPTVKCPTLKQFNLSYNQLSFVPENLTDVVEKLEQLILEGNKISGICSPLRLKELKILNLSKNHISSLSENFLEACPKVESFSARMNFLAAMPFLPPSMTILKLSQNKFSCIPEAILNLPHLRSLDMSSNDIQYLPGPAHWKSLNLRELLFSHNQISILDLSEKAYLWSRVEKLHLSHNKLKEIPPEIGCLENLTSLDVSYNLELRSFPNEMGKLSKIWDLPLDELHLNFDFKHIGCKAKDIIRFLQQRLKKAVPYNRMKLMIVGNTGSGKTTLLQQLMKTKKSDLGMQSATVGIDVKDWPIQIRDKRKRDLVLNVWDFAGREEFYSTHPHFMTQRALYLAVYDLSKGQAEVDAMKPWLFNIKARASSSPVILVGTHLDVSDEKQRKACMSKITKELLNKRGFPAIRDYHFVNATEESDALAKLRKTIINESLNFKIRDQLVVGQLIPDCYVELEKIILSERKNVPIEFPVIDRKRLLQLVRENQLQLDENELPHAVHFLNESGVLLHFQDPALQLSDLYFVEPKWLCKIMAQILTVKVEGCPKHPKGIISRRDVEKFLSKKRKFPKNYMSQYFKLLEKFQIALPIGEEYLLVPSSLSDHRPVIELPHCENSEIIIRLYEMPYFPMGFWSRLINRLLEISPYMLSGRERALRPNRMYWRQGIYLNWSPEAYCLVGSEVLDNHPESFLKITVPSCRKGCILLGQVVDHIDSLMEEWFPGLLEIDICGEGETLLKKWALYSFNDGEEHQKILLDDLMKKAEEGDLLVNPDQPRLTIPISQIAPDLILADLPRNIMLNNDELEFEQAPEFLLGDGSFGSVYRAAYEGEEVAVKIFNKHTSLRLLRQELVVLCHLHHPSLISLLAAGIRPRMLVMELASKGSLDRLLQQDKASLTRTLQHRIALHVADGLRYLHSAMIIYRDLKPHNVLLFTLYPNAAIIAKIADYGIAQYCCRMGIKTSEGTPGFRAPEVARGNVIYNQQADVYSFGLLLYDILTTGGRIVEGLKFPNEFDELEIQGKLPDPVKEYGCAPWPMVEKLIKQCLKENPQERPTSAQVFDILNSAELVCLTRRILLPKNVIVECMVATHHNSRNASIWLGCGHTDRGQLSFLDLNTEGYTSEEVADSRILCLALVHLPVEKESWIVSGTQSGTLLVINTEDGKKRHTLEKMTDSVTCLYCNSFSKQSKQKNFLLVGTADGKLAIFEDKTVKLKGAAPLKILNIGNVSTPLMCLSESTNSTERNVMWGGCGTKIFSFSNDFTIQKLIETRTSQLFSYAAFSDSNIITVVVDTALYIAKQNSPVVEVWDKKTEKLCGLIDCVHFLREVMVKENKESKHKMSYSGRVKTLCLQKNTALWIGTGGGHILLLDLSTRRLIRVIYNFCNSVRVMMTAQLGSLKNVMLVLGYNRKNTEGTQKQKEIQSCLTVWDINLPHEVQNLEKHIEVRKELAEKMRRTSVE
UniProt P62136: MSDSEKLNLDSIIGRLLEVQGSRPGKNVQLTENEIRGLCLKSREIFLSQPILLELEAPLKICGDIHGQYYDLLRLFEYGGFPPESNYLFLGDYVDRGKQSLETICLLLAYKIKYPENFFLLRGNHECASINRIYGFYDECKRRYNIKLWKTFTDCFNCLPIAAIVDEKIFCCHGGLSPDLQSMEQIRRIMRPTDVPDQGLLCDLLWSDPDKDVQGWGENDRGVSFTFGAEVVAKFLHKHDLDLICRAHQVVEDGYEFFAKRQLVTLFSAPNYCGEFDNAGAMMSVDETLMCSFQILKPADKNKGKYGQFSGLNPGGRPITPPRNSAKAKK

Molecular target: 3×FLAG-LRRK2 WT (UniProt Q5S007)
Test: co-IP; HEK-293T cells transiently expressing WT FLAG LRRK2, blot for PP1α; untreated or treated with arsenite, LRRK2IN-1 or H2O2

Substance: protein phosphatase 1α (PP1α) (from UniProt P62136 1-330) (enzyme)
- binding: binds
